# Experimental data: publication doi:10.1101/240606
# Chains of the proteins cited; added tags and fusions are not shown. Lines headed by an entry give the natural chain unless they say otherwise; changes in a name come on top.
# UniProt Q8N6T7: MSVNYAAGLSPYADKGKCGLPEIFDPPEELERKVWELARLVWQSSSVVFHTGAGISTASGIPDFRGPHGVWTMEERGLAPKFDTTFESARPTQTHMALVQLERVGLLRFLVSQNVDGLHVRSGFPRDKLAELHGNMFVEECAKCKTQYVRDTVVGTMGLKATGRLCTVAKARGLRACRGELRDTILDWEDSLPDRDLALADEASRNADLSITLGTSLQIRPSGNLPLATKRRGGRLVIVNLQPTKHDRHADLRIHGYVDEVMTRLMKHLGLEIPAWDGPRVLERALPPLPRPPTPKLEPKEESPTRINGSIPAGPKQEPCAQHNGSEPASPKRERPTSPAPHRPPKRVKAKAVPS
# UniProt Q00987: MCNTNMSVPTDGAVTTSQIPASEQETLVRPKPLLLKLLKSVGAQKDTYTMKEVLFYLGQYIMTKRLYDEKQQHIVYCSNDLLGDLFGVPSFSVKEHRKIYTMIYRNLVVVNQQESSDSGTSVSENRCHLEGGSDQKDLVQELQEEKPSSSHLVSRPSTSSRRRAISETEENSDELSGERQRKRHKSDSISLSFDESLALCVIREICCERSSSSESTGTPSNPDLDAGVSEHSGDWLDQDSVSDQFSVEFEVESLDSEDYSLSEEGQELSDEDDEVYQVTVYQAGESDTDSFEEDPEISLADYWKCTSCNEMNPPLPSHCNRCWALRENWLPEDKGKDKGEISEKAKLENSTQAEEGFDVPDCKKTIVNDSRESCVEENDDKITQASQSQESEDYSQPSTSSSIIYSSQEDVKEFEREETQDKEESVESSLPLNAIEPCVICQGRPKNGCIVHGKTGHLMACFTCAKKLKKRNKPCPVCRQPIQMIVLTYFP
# These are yes or no findings as the source states them, for the method shown. For part of these data: Binding seen in cells or lysates may run through a third protein. Some binding calls cover weakened binding; strength is not graded here. For part of these data: Sequences can lack the tags named with a protein.
# Columns and labels:
# [1] = molecular target: T1, GST-ATM-4 (residues 770-1102) (UniProt Q13315); assay: pull-down
# T1 sequence: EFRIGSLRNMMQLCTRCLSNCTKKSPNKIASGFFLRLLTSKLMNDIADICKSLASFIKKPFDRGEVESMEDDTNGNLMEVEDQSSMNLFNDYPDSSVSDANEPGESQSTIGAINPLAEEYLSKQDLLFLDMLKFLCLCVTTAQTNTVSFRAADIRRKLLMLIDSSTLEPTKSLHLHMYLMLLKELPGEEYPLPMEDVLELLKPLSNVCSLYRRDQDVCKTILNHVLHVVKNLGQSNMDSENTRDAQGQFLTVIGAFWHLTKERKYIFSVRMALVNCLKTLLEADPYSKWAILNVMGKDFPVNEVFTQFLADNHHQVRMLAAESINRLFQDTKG
# Flag-SIRT6 S112A (human) = Flag-SIRT6 S112A (human) (UniProt Q8N6T7); assay: co-IP
# Human Flag-SIRT6 (human) = Human Flag-SIRT6 (human) (UniProt Q8N6T7); assay: co-IP
binding (Flag-SIRT6 S112A (human)),binding (Human Flag-SIRT6 (human)),Substance,binding [1]
,,6 x His-tagged SIRT6 (from UniProt Q8N6T7 1-355),binds
binds,binds,human MDM2 (from UniProt Q00987 1-491),
